Test results: patent US20230271923A1 (The Johns Hopkins University, priority 2020, published 2023)

Test: peptide synthesis
Conditions: conjugation step

Work on “Cyclo-(-Ac-Tyr-NMeAla-Asn-Pro-His-Glu-Hyp-Trp-Ser-Trp(Carboxymethyl)-NMeNle-NMeNle-Lys(NODA_NCS[^18F]AlF)-Cys-)-Gly-NH2” yielded a conjugation yield of 65%.
